# Some results were stated once for a whole list of compounds, not compound by compound. For some of these results: At least one compound was matched to its structure with a doubt left.
# How the values were obtained:
# Type in all cases: in vivo
# Botrytis cinerea = assay: Activity against Botrytis cinerea on capsicum leaves; settings: 250 ppm, capsicum seedlings inoculated one day after spraying, rated after 5 days; untreated 90%
# Pyrenophora teres = assay: Activity against barley net blotch disease; settings: 63 ppm, barley seedlings inoculated 24 hours after spraying, rated after 6 days; untreated 90%
# Sphaerotheca fuliginea = assay: Protective activity against powdery mildew of cucumbers caused by Sphaerotheca fuliginea; settings: 63 ppm, cucumber seedlings inoculated 20 hours after spraying, rated after 7 days; untreated 100%
# Alternaria solani = assay: Activity against Alternaria solani on tomatoes; settings: 63 ppm, tomato leaves sprayed one day before infection, rated after 5 days; untreated 100%
# Puccinia recondita = assay: Curative activity against Puccinia recondita on wheat (wheat leaf rust); settings: 63 ppm, wheat seedlings sprayed one day after infection, rated after 7 days, untreated 90%
Structure (SMILES),disease level (extent of fungal infection on the leaves) (Botrytis cinerea),disease level (% diseased overall leaf area) (Pyrenophora teres),disease level (% diseased cotyledon area) (Sphaerotheca fuliginea),disease level (Alternaria solani),disease level (Puccinia recondita)
"CC(C)Nc1nc(-n2cccn2)nc(Cl)c1-c1c(F)cccc1Cl [I-1, 6-Chloro-5-(2-chloro-6-fluorophenyl)-4-isopropylamino-2-(1-pyrazolyl)pyrimidine]",up to 7%,up to 10%,no disease,up to 7%,not more than 7%
"C[C@H](Nc1nc(-n2cccn2)nc(Cl)c1-c1c(F)cc(F)cc1F)C(F)(F)F [I-2, (S)-6-Chloro-4-(2,2,2-trifluoro-1-methylethyl)amino-5-(2,4,6-trifluorophenyl)-2-(1-pyrazolyl)pyrimidine]",–,–,–,–,not more than 7%
"C[C@H](Nc1nc(-n2ccnc2)nc(Cl)c1-c1c(F)cc(F)cc1F)C(F)(F)F [I-3, (S)-6-Chloro-4-(2,2,2-trifluoro-1-methylethyl)amino-5-(2,4,6-trifluorophenyl)-2-(1-imidazolyl)pyrimidine]",up to 7%,–,–,–,–
"C[C@H](Nc1nc(-n2cncn2)nc(Cl)c1-c1c(F)cc(F)cc1F)C(F)(F)F [I-4, (S)-6-Chloro-4-(2,2,2-trifluoro-1-methylethyl)amino-5-(2,4,6-trifluorophenyl)-2-(1,2,4-triazol-1-yl)pyrimidine]",up to 7%,up to 10%,no disease,up to 7%,–
CC(C)Nc1nc(-c2ncccn2)nc(Cl)c1-c1c(F)cccc1Cl [I-7],up to 7%,–,–,–,–
Fc1cccc(Cl)c1-c1c(Cl)nc(-c2ncccn2)nc1NC1CCCC1 [I-8],up to 7%,–,–,–,–
CCN(CC)c1nc(-c2ncccn2)nc(Cl)c1-c1c(F)cccc1Cl [I-9],up to 7%,–,–,–,–
CC(C)Nc1nc(-c2ncccn2)nc(Cl)c1-c1c(F)cc(F)cc1F [I-11],up to 7%,–,–,–,–
C[C@H](Nc1nc(-c2cnccn2)nc(Cl)c1-c1c(F)cccc1Cl)C(C)(C)C [I-12],up to 7%,up to 10%,no disease,up to 7%,–
CC(C)Nc1nc(-c2cnccn2)nc(Cl)c1-c1c(F)cccc1Cl [I-13],up to 7%,up to 10%,no disease,up to 7%,–
CCN(CC)c1nc(-c2cnccn2)nc(Cl)c1-c1c(F)cccc1Cl [I-14],up to 7%,up to 10%,no disease,up to 7%,–
CC(C)Nc1nc(-c2cnccn2)nc(Cl)c1-c1c(F)cc(F)cc1F [I-18],up to 7%,–,–,–,–
CCC(C)Nc1nc(-c2cnccn2)nc(Cl)c1-c1c(F)cc(F)cc1F (stereo not shown) [I-19],up to 7%,up to 10%,no disease,–,–
CCN(CC)c1nc(-c2cnccn2)nc(Cl)c1-c1c(F)cc(F)cc1F [I-20],up to 7%,up to 10%,no disease,–,–
CC(C)N(C)c1nc(-c2cnccn2)nc(Cl)c1-c1c(F)cc(F)cc1F [I-21],up to 7%,up to 10%,no disease,–,–
CC(C)(C)CNc1nc(-c2cnccn2)nc(Cl)c1-c1c(F)cc(F)cc1F [I-22],up to 7%,up to 10%,no disease,–,–
C[C@H](Nc1nc(-c2cnccn2)nc(Cl)c1-c1c(F)cc(F)cc1F)C(F)(F)F [I-23],up to 7%,up to 10%,no disease,–,–

Structure (SMILES),disease level (extent of fungal infection on the leaves) (Botrytis cinerea),disease level (% diseased overall leaf area) (Pyrenophora teres),disease level (% diseased cotyledon area) (Sphaerotheca fuliginea),disease level (Alternaria solani),disease level (Puccinia recondita)
CC(C)Nc1nc(-n2cncn2)nc(Cl)c1-c1c(F)cccc1Cl [I-29],up to 7%,up to 10%,no disease,up to 7%,–
CC(C)Nc1nc(-n2cnnn2)nc(Cl)c1-c1c(F)cccc1Cl [I-30],up to 7%,–,–,–,–
CC(C)Nc1nc(-n2ccnn2)nc(Cl)c1-c1c(F)cccc1Cl [I-32],up to 7%,up to 10%,no disease,up to 7%,–
Cc1ccn(-c2nc(Cl)c(-c3c(F)cccc3Cl)c(NC(C)C)n2)n1 [I-35],up to 7%,up to 10%,no disease,up to 7%,–
CC(C)Nc1nc(-n2cccn2)nc(Cl)c1-c1c(F)cc(F)cc1F [I-36],up to 7%,up to 10%,no disease,up to 7%,–
CC(C)Nc1nc(-n2cncn2)nc(Cl)c1-c1c(F)cc(F)cc1F [I-37],up to 7%,up to 10%,–,up to 7%,–
CC(C)Nc1nc(-n2cc(Br)cn2)nc(Cl)c1-c1c(F)cc(F)cc1F [I-40],up to 7%,up to 10%,–,up to 7%,–
Cc1ccn(-c2nc(Cl)c(-c3c(F)cc(F)cc3F)c(NC(C)C)n2)n1 [I-41],–,up to 10%,no disease,up to 7%,–
CC(C)Nc1nc(-n2nccc2[N+](=O)[O-])nc(Cl)c1-c1c(F)cc(F)cc1F [I-46],–,–,–,up to 7%,–
Cc1cnn(-c2nc(Cl)c(-c3c(F)cc(F)cc3F)c(NC(C)C)n2)c1 [I-47],up to 7%,up to 10%,no disease,up to 7%,–
C[C@H](Nc1nc(-n2ccnn2)nc(Cl)c1-c1c(F)cc(F)cc1F)C(F)(F)F [I-51],up to 7%,up to 10%,–,up to 7%,–
C[C@H](Nc1nc(-n2cc(Br)cn2)nc(Cl)c1-c1c(F)cc(F)cc1F)C(F)(F)F [I-54],up to 7%,up to 10%,no disease,up to 7%,–
C[C@H](Nc1nc(-n2nccc2[N+](=O)[O-])nc(Cl)c1-c1c(F)cc(F)cc1F)C(F)(F)F [I-60],up to 7%,up to 10%,no disease,up to 7%,–
C[C@H](Nc1nc(-n2nnc3ccc([N+](=O)[O-])cc32)nc(Cl)c1-c1c(F)cc(F)cc1F)C(F)(F)F [I-77],up to 7%,–,–,–,–
C[C@H](Nc1nc(-n2cnc3ncccc32)nc(Cl)c1-c1c(F)cc(F)cc1F)C(F)(F)F [I-78],up to 7%,–,–,–,–
Cc1nc([N+](=O)[O-])cn1-c1nc(Cl)c(-c2c(F)cc(F)cc2F)c(N[C@@H](C)C(F)(F)F)n1 [I-80],up to 7%,–,–,–,–

# — US7709637B2, “5-phenylpyrimidines, their preparation, intermediates for their preparation, and their use for controlling harmful fungi” (BASF SE, priority 2001, dated 2010)
